Results are given in words; binding and its absence hold for the method and conditions named. In cells and extracts the contact can be indirect. Some results given as binding are weak or reduced against the parent protein; the word gives no strength. For some assays here: Tags and fused reporters may be left off the sequences shown.
Key:
[1] = biological target: transcription factor EB (TFEB), endogenous in mouse ependymal cells (mouse (endogenous in EPCs)) (UniProt Q9R210); assay: co-IP
[2] = biological target: GFP-TFEB (full-length mouse Tfeb in pLV-EGFP-C1) (mouse) (UniProt Q9R210); assay: co-IP

Chains of the proteins cited; added tags and fusions are not shown.
UniProt Q9R210: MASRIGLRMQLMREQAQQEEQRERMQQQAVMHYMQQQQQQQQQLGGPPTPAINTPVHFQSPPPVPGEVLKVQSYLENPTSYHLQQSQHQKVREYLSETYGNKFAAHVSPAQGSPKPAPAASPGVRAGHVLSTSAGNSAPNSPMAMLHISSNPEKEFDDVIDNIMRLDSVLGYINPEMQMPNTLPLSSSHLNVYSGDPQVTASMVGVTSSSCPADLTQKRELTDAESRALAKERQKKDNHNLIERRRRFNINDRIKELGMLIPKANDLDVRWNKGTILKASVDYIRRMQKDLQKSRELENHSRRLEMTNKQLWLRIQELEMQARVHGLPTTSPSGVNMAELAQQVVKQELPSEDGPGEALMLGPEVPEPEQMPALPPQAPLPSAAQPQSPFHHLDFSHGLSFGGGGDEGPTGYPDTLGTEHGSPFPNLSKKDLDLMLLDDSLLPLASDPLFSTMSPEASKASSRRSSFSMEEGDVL

B1: LHX2, endogenous in mouse ependymal cells (protein, UniProt Q9Z0S2 1-406)
chain: MLFHSLSGPEVHGVIDEMDRRAKSEAPAISSAIDRGDTETTMPSISSDRAALCAGCGGKISDRYYLLAVDKQWHMRCLKCCECKLNLESELTCFSKDGSIYCKEDYYRRFSVQRCARCHLGISASEMVMRARDLVYHLNCFTCTTCNKMLTTGDHFGMKDSLVYCRLHFEALLQGEYPAHFNHADVAAAAAAAAAAKSAGLGSAGANPLGLPYYNGVGTVQKGRPRKRKSPGPGADLAAYNAALSCNENDAEHLDRDQPYPSSQKTKRMRTSFKHHQLRTMKSYFAINHNPDAKDLKQLAQKTGLTKRVLQVWFQNARAKFRRNLLRQENTGVDKTSDATLQTGTPSGPASELSNASLSPSSTPTTLTDLTSPTLPTVTSVLTSVPGNLEGHEPHSPSQTTLTNLF
With B1 as the binder, how does the binding [1] read?
Its binding is “binds”.

B2: FLAG-LHX2 (full-length mouse Lhx2 in pcDNA3.1-FLAG) (protein, UniProt Q9Z0S2 1-406)
chain: MLFHSLSGPEVHGVIDEMDRRAKSEAPAISSAIDRGDTETTMPSISSDRAALCAGCGGKISDRYYLLAVDKQWHMRCLKCCECKLNLESELTCFSKDGSIYCKEDYYRRFSVQRCARCHLGISASEMVMRARDLVYHLNCFTCTTCNKMLTTGDHFGMKDSLVYCRLHFEALLQGEYPAHFNHADVAAAAAAAAAAKSAGLGSAGANPLGLPYYNGVGTVQKGRPRKRKSPGPGADLAAYNAALSCNENDAEHLDRDQPYPSSQKTKRMRTSFKHHQLRTMKSYFAINHNPDAKDLKQLAQKTGLTKRVLQVWFQNARAKFRRNLLRQENTGVDKTSDATLQTGTPSGPASELSNASLSPSSTPTTLTDLTSPTLPTVTSVLTSVPGNLEGHEPHSPSQTTLTNLF
How did the binding [2] turn out when B2 was run?
Its binding is “binds”.

Source: publication doi:10.1101/2024.06.16.599182
